# These are yes or no findings as the source states them, for the method shown. In cells and extracts the contact can be indirect. A result given as binding can be weak or reduced; the word gives no strength.
# T1: Kv4.3 (α subunit of Ito, KCND3) (human) (UniProt Q9UK17)
# T1 sequence: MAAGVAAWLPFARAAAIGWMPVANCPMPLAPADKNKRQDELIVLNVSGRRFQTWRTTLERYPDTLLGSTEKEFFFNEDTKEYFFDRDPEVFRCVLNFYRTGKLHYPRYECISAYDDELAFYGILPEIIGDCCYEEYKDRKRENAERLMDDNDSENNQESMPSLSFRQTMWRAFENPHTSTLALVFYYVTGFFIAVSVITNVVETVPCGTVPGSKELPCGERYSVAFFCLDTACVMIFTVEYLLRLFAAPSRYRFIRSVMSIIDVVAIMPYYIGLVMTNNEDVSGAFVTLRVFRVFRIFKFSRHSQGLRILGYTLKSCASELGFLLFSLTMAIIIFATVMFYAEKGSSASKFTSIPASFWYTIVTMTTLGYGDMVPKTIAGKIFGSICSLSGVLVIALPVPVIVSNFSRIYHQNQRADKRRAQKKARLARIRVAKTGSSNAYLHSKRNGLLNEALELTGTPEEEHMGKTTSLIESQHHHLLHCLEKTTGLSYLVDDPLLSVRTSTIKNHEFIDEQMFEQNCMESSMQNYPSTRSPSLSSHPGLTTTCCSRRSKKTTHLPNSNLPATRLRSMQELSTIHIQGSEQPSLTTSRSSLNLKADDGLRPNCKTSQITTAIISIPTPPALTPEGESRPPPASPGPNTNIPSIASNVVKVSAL
# Tests used:
# [1] = target: T1, Kv4.3 (α subunit of Ito, KCND3) (human); test: co-IP; whole-cell lysate (0.5 mg) of HEK293T cells transfected with Kv4.3 alone; primary antibody overnight at 4 °C, protein A/G plus agarose beads 4 h at 4 °C, washed with RIPA lysis buffer, Western blot
# [2] = target: T1, Kv4.3 (α subunit of Ito, KCND3) (human); test: co-IP; whole-cell lysate (0.5 mg) of HEK293T cells co-transfected with hERG and Kv4.3, also with Hsp70 siRNA; primary antibody overnight at 4 °C, protein A/G plus agarose beads 4 h at 4 °C, washed with RIPA lysis buffer, Western blot
# [3] = target: Hsp70 (human (endogenous in HEK293T)); test: co-IP; whole-cell lysate (0.5 mg) of HEK293T cells transfected with Kv4.3 alone; primary antibody overnight at 4 °C, protein A/G plus agarose beads 4 h at 4 °C, washed with RIPA lysis buffer, Western blot
# [4] = target: Hsp70 (human (endogenous in HEK293T)); test: co-IP; whole-cell lysate (0.5 mg) of HEK293T cells co-transfected with hERG and Kv4.3, also with Hsp70 siRNA; primary antibody overnight at 4 °C, protein A/G plus agarose beads 4 h at 4 °C, washed with RIPA lysis buffer, Western blot
Molecule,binding [1],binding [2],binding [3],binding [4]
Hsp70 (human (endogenous in HEK293T)),binds,binds,–,–
"Kv4.3 (α subunit of Ito, KCND3) (protein, UniProt Q9UK17 1-655) MAAGVAAWLPFARAAAIGWMPVANCPMPLAPADKNKRQDELIVLNVSGRRFQTWRTTLERYPDTLLGSTEKEFFFNEDTKEYFFDRDPEVFRCVLNFYRTGKLHYPRYECISAYDDELAFYGILPEIIGDCCYEEYKDRKRENAERLMDDNDSENNQESMPSLSFRQTMWRAFENPHTSTLALVFYYVTGFFIAVSVITNVVETVPCGTVPGSKELPCGERYSVAFFCLDTACVMIFTVEYLLRLFAAPSRYRFIRSVMSIIDVVAIMPYYIGLVMTNNEDVSGAFVTLRVFRVFRIFKFSRHSQGLRILGYTLKSCASELGFLLFSLTMAIIIFATVMFYAEKGSSASKFTSIPASFWYTIVTMTTLGYGDMVPKTIAGKIFGSICSLSGVLVIALPVPVIVSNFSRIYHQNQRADKRRAQKKARLARIRVAKTGSSNAYLHSKRNGLLNEALELTGTPEEEHMGKTTSLIESQHHHLLHCLEKTTGLSYLVDDPLLSVRTSTIKNHEFIDEQMFEQNCMESSMQNYPSTRSPSLSSHPGLTTTCCSRRSKKTTHLPNSNLPATRLRSMQELSTIHIQGSEQPSLTTSRSSLNLKADDGLRPNCKTSQITTAIISIPTPPALTPEGESRPPPASPGPNTNIPSIASNVVKVSAL",–,–,binds,binds

# Source: article PMC5736654
